Test results: article PMC12199405
Results are given in words; binding and its absence hold for the method and conditions named. In cells and extracts the contact can be indirect. Some binding calls cover weakened binding; strength is not graded here.

Chains of the proteins cited; added tags and fusions are not shown.
UniProt P28033: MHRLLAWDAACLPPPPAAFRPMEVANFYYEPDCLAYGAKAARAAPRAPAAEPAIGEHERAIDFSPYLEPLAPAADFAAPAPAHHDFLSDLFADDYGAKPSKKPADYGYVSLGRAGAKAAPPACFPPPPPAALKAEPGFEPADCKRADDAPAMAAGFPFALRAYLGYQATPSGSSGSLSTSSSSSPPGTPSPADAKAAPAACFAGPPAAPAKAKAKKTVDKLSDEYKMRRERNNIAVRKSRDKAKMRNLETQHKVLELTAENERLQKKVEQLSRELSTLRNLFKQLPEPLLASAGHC

Target: CCAAT/enhancer-binding protein beta (C/EBPβ) (mouse (endogenous in BV2)) (UniProt P28033)
Assay: co-IP; nuclear proteins of BV2 cells under control or oxygen-glucose deprivation (OGD, 3 h) conditions, immunoprecipitation with C/EBPβ antibody or control IgG, protein A/G magnetic beads, Western blotting; quantified as percentage of input

binding: binds
B1: p21 (coded by Cdkn1a) (protein, UniProt P39689 1-159)
chain: MSNPGDVRPVPHRSKVCRCLFGPVDSEQLRRDCDALMAGCLQEARERWNFDFVTETPLEGNFVWERVRSLGLPKVYLSPGSRSRDDLGGDKRPSTSSALLQGPAPEDHVALSLSCTLVSERPEDSPGGPGTSQGRKRRQTSLTDFYHSKRRLVFCKRKP
